Test results taken from publication PMC6260918.
Results are given in words; binding and its absence hold for the method and conditions named. Binding calls can cover weak binding; strength is not graded here. Sequences can lack the tags named with a protein.

Target: T1, GST-TXNIP-T (150a.a-317a.a) (UniProt Q9H3M7)
T1 sequence: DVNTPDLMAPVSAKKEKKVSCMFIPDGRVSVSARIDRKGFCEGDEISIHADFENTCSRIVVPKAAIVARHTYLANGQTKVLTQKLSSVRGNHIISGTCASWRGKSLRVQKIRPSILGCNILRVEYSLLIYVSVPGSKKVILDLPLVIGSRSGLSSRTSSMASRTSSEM
Assay: pull-down; GST pull-down of recombinant proteins, GST-TXNIP-T (150-317) and His-AKT; both purified

- binding: binds
Substance: His-AKT (enzyme)
